Drawing on paper PMC5548887, this text covers binding for two substances.

Protein sequences, listed by entry. Tags and fused reporters are not part of them.
UniProt Q9Y4X5: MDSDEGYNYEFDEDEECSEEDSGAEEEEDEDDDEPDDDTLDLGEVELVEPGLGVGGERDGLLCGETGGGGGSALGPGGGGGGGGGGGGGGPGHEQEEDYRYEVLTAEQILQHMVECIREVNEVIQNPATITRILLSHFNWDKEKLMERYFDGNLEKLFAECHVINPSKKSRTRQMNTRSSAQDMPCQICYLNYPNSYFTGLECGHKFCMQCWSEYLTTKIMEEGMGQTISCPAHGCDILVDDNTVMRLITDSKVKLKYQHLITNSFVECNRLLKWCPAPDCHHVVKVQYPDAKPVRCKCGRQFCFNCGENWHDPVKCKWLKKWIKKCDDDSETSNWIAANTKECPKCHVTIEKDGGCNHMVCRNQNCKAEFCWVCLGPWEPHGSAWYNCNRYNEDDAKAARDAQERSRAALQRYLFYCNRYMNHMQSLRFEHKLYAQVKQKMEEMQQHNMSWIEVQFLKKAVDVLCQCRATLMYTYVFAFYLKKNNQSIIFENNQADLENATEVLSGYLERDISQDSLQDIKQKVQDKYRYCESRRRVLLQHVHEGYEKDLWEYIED
UniProt Q16763: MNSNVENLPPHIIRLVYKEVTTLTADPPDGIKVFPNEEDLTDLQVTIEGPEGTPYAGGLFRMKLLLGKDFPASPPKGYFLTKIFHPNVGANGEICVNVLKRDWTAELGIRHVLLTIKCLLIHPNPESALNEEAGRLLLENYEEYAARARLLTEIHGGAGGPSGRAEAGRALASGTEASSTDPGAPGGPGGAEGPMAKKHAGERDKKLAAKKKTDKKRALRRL
UniProt O14933: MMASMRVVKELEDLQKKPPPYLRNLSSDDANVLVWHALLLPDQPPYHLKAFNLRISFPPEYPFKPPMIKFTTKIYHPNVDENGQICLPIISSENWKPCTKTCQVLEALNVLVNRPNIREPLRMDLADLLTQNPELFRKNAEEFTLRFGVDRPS

No constants are given. Whether binding was seen depends on the method and setting. Some results given as binding are weak or reduced against the parent protein; the word gives no strength.

This test deals with HHARI full-length (residues 1-557) (UniProt Q9Y4X5). Briefly: SEC; full-length HHARI and E2 (or a 2-fold molar excess of UbcH7-Ub) incubated overnight at 4 °C, Superose 12 10/300 GL in 20 mM Tris HCl pH 8.0, 50 mM NaCl, 2 mM βME; fractions on SDS-PAGE; both purified. Background: SEC sorts molecules by how far they enter the pores of the column.

On to “UBE2S (from UniProt Q16763 1-222) (enzyme)”, for which the binding entry is recorded as “binds”.

For the substance “UBE2L6 (from UniProt O14933 1-153) (enzyme)”, the binding entry is on record as “binds”.
